Measured values as given in the supplement of paper PMC10849652.
This is one part of the list. Residues, ends and D or L forms follow the SMILES beside them. *: point of attachment. Cbz = O=C(OCc1ccccc1)*

Sequences of proteins named here, by UniProt entry; tags and fusion partners are left off. A change or cut given only in a name is not applied to a line headed by its entry.
UniProt O60832: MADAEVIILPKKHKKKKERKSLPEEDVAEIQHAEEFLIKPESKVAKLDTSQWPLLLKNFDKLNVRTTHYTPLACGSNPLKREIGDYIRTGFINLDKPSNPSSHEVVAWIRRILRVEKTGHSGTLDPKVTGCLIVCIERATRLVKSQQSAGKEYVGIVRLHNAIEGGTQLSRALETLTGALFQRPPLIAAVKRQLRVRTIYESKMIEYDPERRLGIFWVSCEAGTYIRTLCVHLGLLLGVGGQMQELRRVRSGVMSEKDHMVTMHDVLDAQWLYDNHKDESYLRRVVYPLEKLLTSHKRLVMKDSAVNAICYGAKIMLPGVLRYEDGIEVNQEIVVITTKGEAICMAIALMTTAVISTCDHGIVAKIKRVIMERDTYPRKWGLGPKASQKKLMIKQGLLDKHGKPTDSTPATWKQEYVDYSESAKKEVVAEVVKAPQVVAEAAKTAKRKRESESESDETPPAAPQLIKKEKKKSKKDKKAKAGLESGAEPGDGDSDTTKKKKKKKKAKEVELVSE
UniProt Q02127: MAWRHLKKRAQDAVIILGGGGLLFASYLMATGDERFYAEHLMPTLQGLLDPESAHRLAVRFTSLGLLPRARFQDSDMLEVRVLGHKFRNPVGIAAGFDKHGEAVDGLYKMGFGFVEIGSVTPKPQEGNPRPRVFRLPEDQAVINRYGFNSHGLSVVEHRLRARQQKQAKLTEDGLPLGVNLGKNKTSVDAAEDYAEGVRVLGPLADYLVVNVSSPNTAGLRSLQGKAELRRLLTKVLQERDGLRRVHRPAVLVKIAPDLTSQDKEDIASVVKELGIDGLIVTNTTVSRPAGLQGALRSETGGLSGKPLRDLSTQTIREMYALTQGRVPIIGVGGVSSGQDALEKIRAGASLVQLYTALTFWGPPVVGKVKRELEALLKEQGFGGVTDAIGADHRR
UniProt Q13574: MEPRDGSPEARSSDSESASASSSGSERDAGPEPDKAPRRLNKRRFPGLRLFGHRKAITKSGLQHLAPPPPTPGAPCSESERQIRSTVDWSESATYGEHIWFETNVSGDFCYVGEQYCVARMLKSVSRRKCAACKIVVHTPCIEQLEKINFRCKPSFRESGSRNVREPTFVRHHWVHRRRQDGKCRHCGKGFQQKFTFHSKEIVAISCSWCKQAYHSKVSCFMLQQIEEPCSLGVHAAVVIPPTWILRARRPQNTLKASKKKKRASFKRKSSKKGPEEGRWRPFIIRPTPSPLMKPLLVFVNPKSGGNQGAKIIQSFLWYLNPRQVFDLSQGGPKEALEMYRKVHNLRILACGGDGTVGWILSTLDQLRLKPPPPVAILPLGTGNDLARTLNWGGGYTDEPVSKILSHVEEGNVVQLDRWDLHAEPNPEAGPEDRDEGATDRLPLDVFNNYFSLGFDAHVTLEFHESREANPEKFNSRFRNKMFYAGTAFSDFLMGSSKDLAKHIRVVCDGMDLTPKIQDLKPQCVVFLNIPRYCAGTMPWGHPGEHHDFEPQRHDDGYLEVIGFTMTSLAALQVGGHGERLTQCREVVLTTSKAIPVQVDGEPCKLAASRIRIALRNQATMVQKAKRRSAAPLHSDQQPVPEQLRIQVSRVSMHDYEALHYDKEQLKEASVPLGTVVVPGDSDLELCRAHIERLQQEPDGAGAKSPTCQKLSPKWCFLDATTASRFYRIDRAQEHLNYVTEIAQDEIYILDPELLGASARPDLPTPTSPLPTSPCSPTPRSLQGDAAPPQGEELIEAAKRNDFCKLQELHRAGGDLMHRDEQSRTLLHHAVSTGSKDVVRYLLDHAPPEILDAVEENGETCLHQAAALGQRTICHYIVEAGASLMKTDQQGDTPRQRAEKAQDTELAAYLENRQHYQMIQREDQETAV
UniProt Q9BUQ8: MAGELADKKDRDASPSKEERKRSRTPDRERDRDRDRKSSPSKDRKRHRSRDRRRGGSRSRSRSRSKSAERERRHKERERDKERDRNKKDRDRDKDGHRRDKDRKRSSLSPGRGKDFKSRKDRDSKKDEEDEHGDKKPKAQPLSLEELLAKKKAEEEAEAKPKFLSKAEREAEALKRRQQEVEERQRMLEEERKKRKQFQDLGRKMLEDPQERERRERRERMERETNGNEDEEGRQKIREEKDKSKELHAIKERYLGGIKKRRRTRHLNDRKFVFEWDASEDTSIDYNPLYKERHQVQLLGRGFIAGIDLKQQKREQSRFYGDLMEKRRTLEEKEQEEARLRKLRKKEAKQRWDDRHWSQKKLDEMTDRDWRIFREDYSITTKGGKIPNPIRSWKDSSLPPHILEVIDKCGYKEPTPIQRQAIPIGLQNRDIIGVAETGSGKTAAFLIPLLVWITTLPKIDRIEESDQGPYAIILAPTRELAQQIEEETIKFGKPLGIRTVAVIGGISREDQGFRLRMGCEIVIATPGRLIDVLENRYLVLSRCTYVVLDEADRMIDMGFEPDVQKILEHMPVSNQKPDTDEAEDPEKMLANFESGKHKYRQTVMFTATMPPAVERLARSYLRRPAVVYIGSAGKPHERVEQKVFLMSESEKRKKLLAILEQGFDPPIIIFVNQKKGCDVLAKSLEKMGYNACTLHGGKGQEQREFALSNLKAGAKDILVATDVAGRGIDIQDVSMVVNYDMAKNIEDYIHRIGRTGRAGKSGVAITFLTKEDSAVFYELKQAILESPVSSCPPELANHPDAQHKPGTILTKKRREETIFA
UniProt O43583: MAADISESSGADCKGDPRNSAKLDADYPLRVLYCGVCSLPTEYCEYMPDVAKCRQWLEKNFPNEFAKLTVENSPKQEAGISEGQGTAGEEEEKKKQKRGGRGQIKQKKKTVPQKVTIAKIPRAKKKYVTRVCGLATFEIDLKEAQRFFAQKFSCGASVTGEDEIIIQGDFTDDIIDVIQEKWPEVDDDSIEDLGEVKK
UniProt Q9UNQ2: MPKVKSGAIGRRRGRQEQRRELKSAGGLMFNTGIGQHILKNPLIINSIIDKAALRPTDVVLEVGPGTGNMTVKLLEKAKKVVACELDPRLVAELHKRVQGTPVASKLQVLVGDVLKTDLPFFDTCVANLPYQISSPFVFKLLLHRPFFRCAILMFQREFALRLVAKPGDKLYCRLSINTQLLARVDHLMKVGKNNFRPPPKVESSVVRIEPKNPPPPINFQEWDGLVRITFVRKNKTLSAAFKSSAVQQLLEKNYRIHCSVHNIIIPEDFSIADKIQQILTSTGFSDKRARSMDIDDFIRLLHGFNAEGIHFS
UniProt Q96HY6: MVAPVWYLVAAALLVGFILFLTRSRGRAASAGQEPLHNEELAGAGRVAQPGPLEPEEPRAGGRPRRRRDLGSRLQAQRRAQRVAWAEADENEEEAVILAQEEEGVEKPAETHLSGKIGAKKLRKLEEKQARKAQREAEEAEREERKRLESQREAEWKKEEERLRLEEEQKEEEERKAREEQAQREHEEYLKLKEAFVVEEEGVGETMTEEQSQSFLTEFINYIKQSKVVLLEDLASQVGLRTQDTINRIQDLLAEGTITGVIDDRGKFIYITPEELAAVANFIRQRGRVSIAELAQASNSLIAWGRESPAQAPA
UniProt Q96GE9: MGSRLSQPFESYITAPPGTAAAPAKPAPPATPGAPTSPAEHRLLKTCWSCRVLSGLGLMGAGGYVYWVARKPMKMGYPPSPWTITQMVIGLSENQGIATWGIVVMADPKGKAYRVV
UniProt Q9UBM7: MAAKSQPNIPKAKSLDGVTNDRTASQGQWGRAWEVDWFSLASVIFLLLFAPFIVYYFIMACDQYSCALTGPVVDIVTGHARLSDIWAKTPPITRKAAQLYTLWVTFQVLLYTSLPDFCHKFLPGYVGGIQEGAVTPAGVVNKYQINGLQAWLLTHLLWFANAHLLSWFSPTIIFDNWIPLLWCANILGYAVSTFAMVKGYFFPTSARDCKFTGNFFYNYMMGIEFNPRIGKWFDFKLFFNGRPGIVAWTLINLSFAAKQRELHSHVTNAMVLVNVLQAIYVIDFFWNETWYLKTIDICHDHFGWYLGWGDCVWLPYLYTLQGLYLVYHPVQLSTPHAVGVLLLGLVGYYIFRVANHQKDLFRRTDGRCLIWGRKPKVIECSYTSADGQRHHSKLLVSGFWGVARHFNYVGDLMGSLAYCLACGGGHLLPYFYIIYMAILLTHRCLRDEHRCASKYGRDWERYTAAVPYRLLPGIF
UniProt P30046: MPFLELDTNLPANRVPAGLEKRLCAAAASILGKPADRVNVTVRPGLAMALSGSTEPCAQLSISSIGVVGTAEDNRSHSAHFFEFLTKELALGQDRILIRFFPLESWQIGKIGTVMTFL
UniProt Q16698: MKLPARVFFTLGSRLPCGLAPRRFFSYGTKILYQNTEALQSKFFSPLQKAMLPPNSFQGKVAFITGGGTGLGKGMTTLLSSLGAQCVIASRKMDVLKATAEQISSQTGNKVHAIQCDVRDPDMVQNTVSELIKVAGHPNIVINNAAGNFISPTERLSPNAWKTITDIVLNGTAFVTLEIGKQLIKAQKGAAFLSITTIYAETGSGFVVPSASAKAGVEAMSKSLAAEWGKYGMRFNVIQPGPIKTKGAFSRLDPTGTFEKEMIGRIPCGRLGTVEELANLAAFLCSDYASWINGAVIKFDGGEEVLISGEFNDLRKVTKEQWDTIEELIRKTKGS
UniProt O00273: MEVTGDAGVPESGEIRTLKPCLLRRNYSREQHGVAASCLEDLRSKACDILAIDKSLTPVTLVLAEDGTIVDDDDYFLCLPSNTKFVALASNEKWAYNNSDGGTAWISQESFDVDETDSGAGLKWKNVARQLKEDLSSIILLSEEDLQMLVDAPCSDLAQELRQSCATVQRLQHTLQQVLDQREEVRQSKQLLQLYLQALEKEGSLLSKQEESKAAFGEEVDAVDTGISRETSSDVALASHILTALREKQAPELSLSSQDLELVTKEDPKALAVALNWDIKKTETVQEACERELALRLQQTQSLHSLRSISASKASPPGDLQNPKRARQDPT

Experiments:
Experiment in all cases: log2 fold change, soluble protein after heating vs DMSO (PISA); higher = thermal stabilisation; K562 cells, 10 uM, 30 min; active = over 0.2 and 3.5 SD of the protein, either way, in both replicates (recomputed)
erlotinib = compound: C#Cc1cccc(Nc2ncnc3cc(OCCOC)c(OCCOC)cc23)c1 [erlotinib]
Outline: (§1)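 K562 cells at 2×10^6 cells/mL were exposed to 10 μM compound for 30 min, then aliquots were heated for 3 min across 48°C-58°C, pooled, and extracted in PBS containing 0.5% NP-40 at 4°C. The supernatant after 21,000xg for 90 min was taken as soluble protein and measured by TMTpro 16plex LC-MS/MS with channel sums equalised. Thermal stability is reported relative to control samples, with values from duplicates. Fold changes are given on a log2 scale.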

[1] = compound: C/C(=N\NC(=O)C1=CC(=CC=C1)S(=O)(=O)N2CCOCC2)/C3=C(C=CC(=C3)Cl)O
Outline: as §1

[2] = compound: C1=CC(=C(C=C1Cl)C2=NC3=NC=CN=C3C(=N2)NC4=CC=NC=C4)F
Outline: as §1

[3] = compound: C1=CC(=CC=C1C2=NC3=C(N2)C=C(C=C3)C(=O)N)OC4=CC=C(C=C4)Cl
Outline: as §1

[4] = compound: C1=CC2=C(C=CC(=C2)/C=C\3/C(=O)NC(=NCC4=CC=CS4)S3)N=C1
Outline: as §1

[5] = compound: C1=CC2=NC=CN=C2C=C1/C=C/3\C(=O)NC(=O)S3
Outline: as §1

[6] = compound: C1=CC=C(C=C1)C2=NC(=C(N2)C3=CC=NC=C3)C4=CC(=C(C=C4)Cl)O
Outline: as §1

[7] = compound: C1=CC=C2C(=C1)C3=NNC4=CC=CC(=C43)C2=O
Outline: as §1

[8] = compound: C1CCN(C1)C(=O)NC2=CC=CC(=C2)NC3=NC=C(C(=N3)NCCC4=CN=CN4)Br
Outline: as §1

[9] = compound: C1CN(CCC1(CC2=CC=C(C=C2)Cl)N)C3=NC=NC4=C3C=CN4
Outline: as §1

IRAK-1-4 Inhibitor I = compound: C1COCCN1CCN2C3=CC=CC=C3N=C2NC(=O)C4=CC(=CC=C4)[N+](=O)[O-] [IRAK-1-4 Inhibitor I]
Outline: as §1

ibrutinib = compound: C=CC(=O)N1CCC[C@@H](n2nc(-c3ccc(Oc4ccccc4)cc3)c3c(N)ncnc32)C1 [ibrutinib]
Outline: as §1

[10] = compound: CC(=O)c1cnc2ccc(-c3cc(Cl)c(O)c(Cl)c3)nc2c1N[C@H]1CC[C@H](CN(C)C)CC1
Outline: as §1

ralimetinib = compound: CC(C)(C)Cn1c(N)nc2ccc(-c3[nH]c(C(C)(C)C)nc3-c3ccc(F)cc3)nc21 [ralimetinib]
Outline: as §1

[11] = compound: CC(C)(O)CC(=O)NCCn1ccc2ncnc(Nc3ccc(Oc4cccc(C(F)(F)F)c4)c(Cl)c3)c21
Outline: as §1

[12] = compound: CC(C)C1=C2N=C(C=C(N2N=C1)NCC3=CC=CC=C3)NCCCCCCN
Outline: as §1

[13] = compound: CC(C)C[C@@H](C=O)NC(=O)[C@H](CC(C)C)NC(=O)[C@H](CC(C)C)NC(=O)OCc1ccccc1
Outline: as §1

pinometostat = compound: CC(C)N(C[C@H]1O[C@@H](n2cnc3c(N)ncnc32)[C@H](O)[C@@H]1O)[C@H]1C[C@@H](CCc2nc3cc(C(C)(C)C)ccc3[nH]2)C1 [pinometostat]
Outline: as §1

[14] = compound: CC1=C(C(CC(=O)N1)C2=CC=C(C=C2)C(F)(F)F)C(=O)NC3=C(C=C4C(=C3)C=NN4)F
Outline: as §1

[15] = compound: CC1=C(C2=C(C=C1)C(=O)C3=CC=CC=C3N2CCCN)C
Outline: as §1

Measured: log2 fold change

DNAJA1 (UniProt P31689)
inactive: erlotinib -0.019 | [1] 0.044 | [2] 0.009 | [3] 0 | [4] -0.039 | [5] 0.002 | [6] 0.017 | [7] 0.013 | [8] -0.027 | [9] -0.038 | IRAK-1-4 Inhibitor I 0.004 | ibrutinib 0.011 | [10] -0.05 | ralimetinib -0.022 | [11] -0.015 | [12] 0.016 | [13] -0.023 | pinometostat -0.015 | [14] 0.014 | [15] 0.019

DKC1 (UniProt O60832)
inactive: erlotinib -0.059 | [1] -0.111 | [2] -0.155 | [3] 0.015 | [4] -0.066 | [5] 0.003 | [6] -0.047 | [7] -0.032 | [8] -0.045 | [9] -0.078 | IRAK-1-4 Inhibitor I -0.056 | ibrutinib -0.01 | [10] 0.021 | ralimetinib 0.073 | [11] 0.035 | [12] 0.146 | [13] 0.046 | pinometostat 0.105 | [14] 0 | [15] 0.153

DHODH (UniProt Q02127)
inactive: erlotinib 0.026 | [1] 0.017 | [2] 0.058 | [3] 0.002 | [4] 0.012 | [5] 0.023 | [6] -0.037 | [7] 0.014 | [8] -0.031 | [9] 0.076 | IRAK-1-4 Inhibitor I 0.016 | ibrutinib -0.007 | [10] 0.005 | ralimetinib -0.058 | [11] -0.009 | [12] 0.037 | [13] -0.009 | pinometostat -0.012 | [14] 0.008 | [15] -0.005

DGKZ (UniProt Q13574)
inactive: erlotinib -0.109 | [1] 0 | [2] 0 | [3] 0.161 | [4] 0.027 | [5] 0.03 | [6] -0.054 | [7] 0.049 | [8] 0.003 | [9] -0.059 | IRAK-1-4 Inhibitor I -0.034 | ibrutinib 0.043 | [10] -0.127 | ralimetinib 0.008 | [11] -0.024 | [12] 0.009 | [13] 0.142 | pinometostat 0.031 | [14] -0.009 | [15] 0.053

DDX23 (UniProt Q9BUQ8)
inactive: erlotinib -0.104 | [1] -0.09 | [2] -0.113 | [3] 0.043 | [4] -0.029 | [5] 0.098 | [6] -0.131 | [7] -0.051 | [8] 0.056 | [9] -0.104 | IRAK-1-4 Inhibitor I -0.026 | ibrutinib -0.087 | [10] 0.071 | ralimetinib 0.074 | [11] 0.182 | [12] 0.219 | [13] 0.122 | pinometostat 0.22 | [14] 0.007 | [15] 0.106

DENR (UniProt O43583)
inactive: erlotinib 0.007 | [1] 0.006 | [2] 0.073 | [3] 0.019 | [4] -0.027 | [5] 0.03 | [6] -0.023 | [7] -0.031 | [8] -0.011 | [9] 0.044 | IRAK-1-4 Inhibitor I 0.035 | ibrutinib -0.031 | [10] 0 | ralimetinib -0.061 | [11] 0.029 | [12] 0.063 | [13] -0.022 | pinometostat -0.052 | [14] 0.039 | [15] -0.04

DDA1 (UniProt Q9BW61)
inactive: erlotinib -0.041 | [1] 0.02 | [2] 0.035 | [3] 0.055 | [4] 0.042 | [5] 0.048 | [6] -0.024 | [7] -0.024 | [8] 0.016 | [9] 0.016 | IRAK-1-4 Inhibitor I 0.005 | ibrutinib -0.092 | [10] -0.033 | ralimetinib -0.037 | [11] -0.034 | [12] 0.015 | [13] 0.082 | pinometostat -0.059 | [14] 0.059 | [15] 0.016

DNAH9 (UniProt Q9NYC9)
inactive: erlotinib 0.007 | [1] -0.029 | [2] 0.028 | [3] -0.029 | [4] -0.072 | [5] 0.005 | [6] -0.051 | [7] -0.025 | [8] 0.027 | [9] 0.078 | IRAK-1-4 Inhibitor I -0.011 | ibrutinib -0.012 | [10] 0.032 | ralimetinib -0.078 | [11] -0.017 | [12] 0.067 | [13] -0.028 | pinometostat -0.093 | [14] -0.021 | [15] -0.024

DIMT1 (UniProt Q9UNQ2)
inactive: erlotinib -0.169 | [1] -0.063 | [2] -0.374 | [3] 0.049 | [4] -0.037 | [5] -0.009 | [6] -0.022 | [7] 0.037 | [8] 0.026 | [9] -0.136 | IRAK-1-4 Inhibitor I -0.153 | ibrutinib 0.001 | [10] 0.178 | ralimetinib 0.125 | [11] 0 | [12] 0.061 | [13] 0.094 | pinometostat 0.275 | [14] -0.044 | [15] -0.416

Two entries drawn at random from those above:
DDX23 (UniProt Q9BUQ8)
inactive: erlotinib -0.104 | [1] -0.09 | [2] -0.113 | [3] 0.043 | [4] -0.029 | [5] 0.098 | [6] -0.131 | [7] -0.051 | [8] 0.056 | [9] -0.104 | IRAK-1-4 Inhibitor I -0.026 | ibrutinib -0.087 | [10] 0.071 | ralimetinib 0.074 | [11] 0.182 | [12] 0.219 | [13] 0.122 | pinometostat 0.22 | [14] 0.007 | [15] 0.106

DDA1 (UniProt Q9BW61)
inactive: erlotinib -0.041 | [1] 0.02 | [2] 0.035 | [3] 0.055 | [4] 0.042 | [5] 0.048 | [6] -0.024 | [7] -0.024 | [8] 0.016 | [9] 0.016 | IRAK-1-4 Inhibitor I 0.005 | ibrutinib -0.092 | [10] -0.033 | ralimetinib -0.037 | [11] -0.034 | [12] 0.015 | [13] 0.082 | pinometostat -0.059 | [14] 0.059 | [15] 0.016

Next entries follow:

DDRGK1 (UniProt Q96HY6)
inactive: erlotinib 0.027 | [1] 0 | [2] 0.005 | [3] 0.016 | [4] -0.048 | [5] -0.024 | [6] -0.008 | [7] -0.068 | [8] 0.115 | [9] 0.019 | IRAK-1-4 Inhibitor I -0.011 | ibrutinib 0.026 | [10] -0.003 | ralimetinib 0.033 | [11] -0.033 | [12] 0.017 | [13] 0.078 | pinometostat 0.005 | [14] 0.021 | [15] 0.083

DMAC1 (UniProt Q96GE9)
inactive: erlotinib 0.041 | [1] 0.076 | [2] 0.128 | [3] -0.002 | [4] 0.059 | [5] -0.004 | [6] -0.04 | [7] -0.021 | [8] 0.008 | [9] 0.072 | IRAK-1-4 Inhibitor I 0.018 | ibrutinib 0.048 | [10] 0.034 | ralimetinib -0.011 | [11] 0.072 | [12] 0.019 | [13] 0.067 | pinometostat -0.002 | [15] -0.013

DHCR7 (UniProt Q9UBM7)
active: [9] 0.623
inactive: erlotinib 0.113 | [1] 0.041 | [2] -0.095 | [3] -0.056 | [4] 0.071 | [5] 0.022 | [6] 0.038 | [7] -0.003 | [8] -0.037 | IRAK-1-4 Inhibitor I -0.045 | ibrutinib -0.091 | [10] -0.085 | ralimetinib 0.056 | [11] 0.067 | [12] -0.021 | [13] 0.011 | pinometostat 0.199 | [15] 0.15

DDT (UniProt P30046)
inactive: erlotinib 0.003 | [1] 0.102 | [2] 0.196 | [3] 0.007 | [4] 0.093 | [5] 0 | [6] 0.044 | [7] -0.002 | [8] -0.026 | [9] 0.001 | IRAK-1-4 Inhibitor I 0.013 | ibrutinib 0 | [10] 0 | ralimetinib -0.054 | [11] -0.072 | [12] 0.057 | [13] -0.022 | pinometostat -0.032 | [14] 0.016 | [15] 0.115

DECR1 (UniProt Q16698)
inactive: erlotinib -0.001 | [1] 0.024 | [2] 0.061 | [3] 0.011 | [4] 0 | [5] 0.016 | [6] 0.003 | [7] 0.022 | [8] -0.035 | [9] 0.034 | IRAK-1-4 Inhibitor I 0.002 | ibrutinib -0.031 | [10] 0.005 | ralimetinib -0.004 | [11] -0.011 | [12] 0.043 | [13] -0.009 | pinometostat -0.042 | [14] -0.007 | [15] 0.012

DFFA (UniProt O00273)
inactive: erlotinib 0.004 | [1] -0.005 | [2] 0.066 | [3] -0.003 | [4] -0.008 | [5] 0.024 | [6] -0.003 | [7] -0.028 | [8] -0.035 | [9] 0.008 | IRAK-1-4 Inhibitor I 0.035 | ibrutinib 0.006 | [10] 0.038 | ralimetinib -0.056 | [11] -0.024 | [12] 0.03 | [13] -0.087 | pinometostat -0.054 | [14] 0.043 | [15] -0.025
